Our source for the binding values is article PMC3781157.

Results are given in words; binding and its absence hold for the method and conditions named. A result given as binding can be weak or reduced; the word gives no strength.

One experiment has as its target GST-RhoAΔC. In words: pull-down; GST-GTPase as bait, loaded with GDP or GppNHp overnight at 4°C; purified HMHA1 without GST tag as prey; bound HMHA1 detected by Western blot with anti-HMHA1; both purified. In general terms: Immunoblotting shows a protein as a band on a membrane.
For a further experiment, the target named is GST-Rac1ΔC. The description is as above.

B1: HMHA1 full-length (protein, UniProt Q92619 1-1136)
chain: MFSRKKRELMKTPSISKKNRAGSPSPQPSGELPRKDGADAVFPGPSLEPPAGSSGVKATGTLKRPTSLSRHASAAGFPLSGAASWTLGRSHRSPLTAASPGELPTEGAGPDVVEDISHLLADVARFAEGLEKLKECVLRDDLLEARRPRAHECLGEALRVMHQIISKYPLLNTVETLTAAGTLIAKVKAFHYESNNDLEKQEFEKALETIAVAFSSTVSEFLMGEVDSSTLLAVPPGDSSQSMESLYGPGSEGTPPSLEDCDAGCLPAEEVDVLLQRCEGGVDAALLYAKNMAKYMKDLISYLEKRTTLEMEFAKGLQKIAHNCRQSVMQEPHMPLLSIYSLALEQDLEFGHSMVQAVGTLQTQTFMQPLTLRRLEHEKRRKEIKEAWHRAQRKLQEAESNLRKAKQGYVQRCEDHDKARFLVAKAEEEQAGSAPGAGSTATKTLDKRRRLEEEAKNKAEEAMATYRTCVADAKTQKQELEDTKVTALRQIQEVIRQSDQTIKSATISYYQMMHMQTAPLPVHFQMLCESSKLYDPGQQYASHVRQLQRDQEPDVHYDFEPHVSANAWSPVMRARKSSFNVSDVARPEAAGSPPEEGGCTEGTPAKDHRAGRGHQVHKSWPLSISDSDSGLDPGPGAGDFKKFERTSSSGTMSSTEELVDPDGGAGASAFEQADLNGMTPELPVAVPSGPFRHEGLSKAARTHRLRKLRTPAKCRECNSYVYFQGAECEECCLACHKKCLETLAIQCGHKKLQGRLQLFGQDFSHAARSAPDGVPFIVKKCVCEIERRALRTKGIYRVNGVKTRVEKLCQAFENGKELVELSQASPHDISNVLKLYLRQLPEPLISFRLYHELVGLAKDSLKAEAEAKAASRGRQDGSESEAVAVALAGRLRELLRDLPPENRASLQYLLRHLRRIVEVEQDNKMTPGNLGIVFGPTLLRPRPTEATVSLSSLVDYPHQARVIETLIVHYGLVFEEEPEETPGGQDESSNQRAEVVVQVPYLEAGEAVVYPLQEAAADGCRESRVVSNDSDSDLEEASELLSSSEASALGHLSFLEQQQSEASLEVASGSHSGSEEQLEATAREDGDGDEDGPAQQLSGFNTNQSNNVLQAPLPPMRLRGGRMTLGSCRERQPEFV
Regarding B1, the binding entry in the experiment with GST-RhoAΔC and in the experiment with GST-Rac1ΔC was “binds” each time.
